Data reported in patent US9174980B2, “Heterocyclic compounds as inhibitors of leukotriene production” (Boehringer Ingelheim International GmbH, priority 2012, dated 2015).

The chains behind the UniProt entries cited, without tags or fusion partners.
UniProt P20292, whole entry: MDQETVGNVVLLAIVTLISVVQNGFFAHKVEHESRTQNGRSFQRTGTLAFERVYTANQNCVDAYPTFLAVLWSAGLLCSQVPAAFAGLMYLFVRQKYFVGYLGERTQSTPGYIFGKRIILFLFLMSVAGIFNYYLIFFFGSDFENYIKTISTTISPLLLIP

Key:
[1] = biological target: recombinant human FLAP protein (Homo sapiens, UniProt P20292); assay: FLAP binding assay (Scintillation Proximity Assay, displacement of [125I]L-691,831); conditions: read-out: Human FLAP SPA Binding (IC50 nM); tested form: TFA
Description: Compounds are assessed for the ability to bind to FLAP in a binding assay that measures compound-specific displacement of an iodinated (^125I) FLAP inhibitor via a Scintillation Proximity Assay format (adapted from S. Charleson et al., Mol. Pharmacol., 1992, 41, 873-879).
Cell pellets produced from sf9 insect cells expressing recombinant human FLAP protein are resuspended in buffer A [15 mM Tris-HCl (pH 7.5), 2 mM MgCl2, 0.3 mM EDTA, 1 mM PMSF]. The cells are lysed with a Dounce homogenizer and the material is centrifuged at 10,000×g for 10 minutes. The supernatant is then collected and centrifuged at 100,000×g for 60 minutes. To prepare membrane protein for an assay, an aliquot of the 100,000×g pellet is resuspended in 1 ml of buffer A, Dounce homogenized, and finally subjected to polytron mixing (30 seconds). Membrane protein (25 μl, 5 μg) is mixed with WGA SPA beads (Amersham) and stirred for 1 h. […] (final concentrations: beads, 200 μg/well; protein, 5 μg/well; [^125I] probe, 0.08 nM/well (17 nCi/well). The plates are shaken for 2 h before reading on a Microbeta plate reader. Non-specific binding is determined by the addition of 10 μM cold L-691,831 compound.

[2] = system: synthesis of LTB4 in human whole blood; assay: Human whole blood assay (calcimycin-stimulated LTB4 synthesis); conditions: read-out: Human Whole Blood LTB4 Assay for FLAP (IC50 nM); tested form: TFA
Description: Compounds are additionally tested in a human whole blood assay to determine their ability to inhibit the synthesis of LTB4 in a cellular system. Compounds are combined with heparinized human whole blood and incubated for 15 minutes at 37° C. Calcimycin (20 μM final, prepared in phosphate-buffered saline, pH 7.4) is then added and the mixture is incubated for another 30 minutes at 37° C. The samples are centrifuged for 5 min at low speed (1500×g) and the plasma layer is removed. Plasma LTB4 concentrations are then measured using an antibody-based homogenous time-resolved fluorescence method (CisBio, Bedford, Mass.).

CC(C)C(C)(c1ccc(OCc2ccccn2)cc1)c1cn(Cc2ccc(C(C)(C)O)cn2)c2ccccc12 (centres unmarked)
IC50 [1]: 3.2 nM | IC50 [2]: 550 nM

Structures were worked out from names or drawings and are uncertain.
